{"source": "patent US20100143330A1", "about": "“METHODS OF TREATING DISORDERS ASSOCIATED WITH FAT STORAGE” (UnversidadDe Salamanca (O.T.R.I.), priority 2006, published 2010)", "key": {"SLUG-deficient MEFs": {"test_system": "SLUG-deficient MEFs", "assay": "Adipocyte differentiation of SLUG-deficient MEFs in the presence of troglitazone (Oil Red O, ap2 western blot)", "type": "cell-based, mouse", "conditions": "10 μM troglitazone during the 8 days of differentiation"}, "Combi-SLUG mice": {"test_system": "Combi-SLUG mice", "assay": "WAT size and body weight in Combi-SLUG mice after suppression of SLUG expression by tetracycline treatment", "type": "in vivo, mouse"}, "[1]": {"test_system": "PPARγ2 expression in Combi-Slug MEFs", "assay": "PPARγ2 expression by real-time PCR in Combi-Slug MEFs ± DOX during differentiation", "type": "cell-based, mouse", "conditions": "doxycycline treatment of Combi-Slug MEFs; hormonal induction"}}, "note": "Entries after “also recorded” stand apart in the source; their conditions may differ. At least one structure is not confirmed: it was looked up by name or label, or the drawing left a doubt."}
{"smiles": "Cc1c(C)c2c(c(C)c1O)CCC(C)(COc1ccc(CC3SC(=O)NC3=O)cc1)O2", "note": "(stereo not shown) [troglitazone]", "values": [{"measurement": "adipocyte differentiation block in SLUG-deficient MEFs", "setting": "SLUG-deficient MEFs", "value": "normalised; also recorded: normalization"}]}
{"smiles": "CN(C)[C@@H]1C(O)=C(C(N)=O)C(=O)[C@@]2(O)C(O)=C3C(=O)c4c(O)cccc4[C@@](C)(O)[C@H]3C[C@@H]12", "note": "[tetracycline]", "values": [{"measurement": "WAT mass in control mice", "setting": "Combi-SLUG mice; control mice under tetracycline treatment (4 gr/L) for 3 weeks", "value": "not afected"}, {"measurement": "mice exhibiting a decrease in body weight", "setting": "Combi-SLUG mice; tetracycline 4 gr/L in the drinking water for 3 weeks, Combi-SLUG mice with increased body weight", "value": "Eleven out of 12"}]}
{"smiles": "C[C@H]1c2cccc(O)c2C(=O)C2=C(O)[C@]3(O)C(=O)C(C(N)=O)=C(O)[C@@H](N(C)C)[C@@H]3[C@@H](O)[C@@H]21", "note": "[doxycycline]", "values": [{"measurement": "increase in PPARγ2 expression in Combi-Slug MEFs", "setting": "[1]", "value": "reverted"}]}
